Source: the supplement of paper PMC9233669
Variants at the background level are over-represented here.

How the values were obtained:
biotinyl-Ile-oxazolone = assay: self-aminoacylation, catalytic enhancement (BIO) (fold over background); higher = more active; k-Seq, kA / k0A0; sequences stand for … in GGGAAUGGAUCCACAUCUACGAAUUC…UUCACUGCAGACUUGACGAAGCUG
Procedure, shortened: (§1)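 Working in 50 μL HEPES/NaCl/KCl/MgCl2/CaCl2 buffer with 5% acetonitrile at pH 6.9–7.0, mutagenized RNA pools (0.43 μM; 21-nt variable region) were reacted with 2–1250 μM of each biotinyl-aminoacyl-oxazolone for 90 minutes at room temperature. Streptavidin capture followed, with quantification by triplicate qPCR and Illumina sequencing. Catalytic enhancement is reported as median kA over the uncatalyzed rate, the low-activity peak of a bimodal Gaussian fit to the data.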

biotinyl-Val-oxazolone = assay: self-aminoacylation, catalytic enhancement (BVO) (fold over background); higher = more active; k-Seq, kA / k0A0; sequences stand for … in GGGAAUGGAUCCACAUCUACGAAUUC…UUCACUGCAGACUUGACGAAGCUG
Procedure, shortened: as §1

biotinyl-Leu-oxazolone = assay: self-aminoacylation, catalytic enhancement (BLO) (fold over background); higher = more active; k-Seq, kA / k0A0; sequences stand for … in GGGAAUGGAUCCACAUCUACGAAUUC…UUCACUGCAGACUUGACGAAGCUG
Procedure, shortened: as §1

biotinyl-Met-oxazolone = assay: self-aminoacylation, catalytic enhancement (BMO) (fold over background); higher = more active; k-Seq, kA / k0A0; sequences stand for … in GGGAAUGGAUCCACAUCUACGAAUUC…UUCACUGCAGACUUGACGAAGCUG
Procedure, shortened: as §1

| Sequence | self-aminoacylation (biotinyl-Ile-oxazolone) | self-aminoacylation (biotinyl-Val-oxazolone) | self-aminoacylation (biotinyl-Leu-oxazolone) | self-aminoacylation (biotinyl-Met-oxazolone) |
| --- | --- | --- | --- | --- |
| AAACUUCAAACAAUCGGUCUG [Fam1A.1 aminoacylation ribozyme variant] | 1.28 | 1.14 | 1.65 | 1.42 |
| AAGUAUGCUAAUAGUCACAAG [Fam3.1 aminoacylation ribozyme variant] | 1.62 | 1.59 | 1.41 | 1.3 |
| AAGUCUACUAAUAGUCGCAAG [Fam3.1 aminoacylation ribozyme variant] | 1.82 | 1.3 | 1.1 | 1.48 |
| AAGUUGGCUAACAGUCGCAAG [Fam3.1 aminoacylation ribozyme variant] |  | 1.56 | 1.91 | 1.95 |
| AAGUUGGCUGAUAGUCGCAAG [Fam3.1 aminoacylation ribozyme variant] | 1.8 | 1.7 | 1.55 | 1.49 |
| AAGUUUACUUAUAGUCGCAAG [Fam3.1 aminoacylation ribozyme variant] | 1.86 | 1.58 | 1.39 | 1.92 |
| AAGUUUCCUAAGAGUCGCAAG [Fam3.1 aminoacylation ribozyme variant] | 1.29 | 1.31 | 1.24 | 1.04 |
| AAGUUUGAUUAUAGUCGCAAG [Fam3.1 aminoacylation ribozyme variant] | 1.89 | 1.48 | 1.89 | 1.93 |
| AAGUUUGCAAAUAGUCGCCAG [Fam3.1 aminoacylation ribozyme variant] | 1.29 | 0.995 | 0.952 | 0.899 |
| AAGUUUGCGAAUAGUCGCGAG [Fam3.1 aminoacylation ribozyme variant] | 1.44 | 1.39 | 1.75 | 1.92 |
| AAGUUUGCUAACAGUCGUAAG [Fam3.1 aminoacylation ribozyme variant] | 1.02 | 1.07 | 0.828 | 1.17 |
| AAGUUUGCUAAUAGCCGCAAG [Fam3.1 aminoacylation ribozyme variant] | 0.815 | 0.756 | 0.698 | 0.734 |
| AAGUUUGGUCAUAGUCGCAAG [Fam3.1 aminoacylation ribozyme variant] | 1.87 | 1.78 | 1.8 | 1.53 |
| AAGUUUUCUAAUAGUCGGAAG [Fam3.1 aminoacylation ribozyme variant] | 1.44 | 1.31 | 1.14 | 1.25 |
| ACACACUUCAAGCAAUCGGUC [Fam1B.1 aminoacylation ribozyme variant] | 1.19 | 1.35 | 1.34 | 1.09 |
| ACAUACUUCAAGCAAUCGGUC [Fam1B.1 aminoacylation ribozyme variant] | 1.25 | 1.22 | 1.34 | 1.17 |
| AGGUGUGCUAAUAGUCGCAAG [Fam3.1 aminoacylation ribozyme variant] | 1.54 | 1.2 | 1.43 | 1.64 |
| AUACACCUACGUCAUCGGGUG [Fam2.2 aminoacylation ribozyme variant] | 3.12 | 2.49 | 5.2 | 4.6 |
| AUACUUCAAACAAUCGGGCUG [Fam1A.1 aminoacylation ribozyme variant] | 1.31 | 1.54 | 1.42 | 1.46 |
| AUACUUCAACCAAUCGGUCUG [Fam1A.1 aminoacylation ribozyme variant] | 0.826 | 0.821 | 0.994 | 1.04 |
| AUAUUUCAAACAAUCGGUCUG [Fam1A.1 aminoacylation ribozyme variant] | 0.897 | 0.834 | 0.891 | 0.844 |
| AUGCACCUCGGUCAUCGGGUG [Fam2.2 aminoacylation ribozyme variant] | 4.1 | 3.86 | 6.47 | 5.38 |
| AUGUCUGCUAAUAGUCGCAAG [Fam3.1 aminoacylation ribozyme variant] | 1.91 | 1.56 | 1.74 | 2.25 |
| AUUACACUGGUCACCGAGUGA [Fam2.1 aminoacylation ribozyme variant] | 2.95 | 2.91 | 5.41 | 5.29 |
| AUUACCCUGGGCAUCGGGUGA [Fam2.1 aminoacylation ribozyme variant] | 5.62 | 6.68 | 11.5 | 10.4 |

| Sequence | self-aminoacylation (biotinyl-Ile-oxazolone) | self-aminoacylation (biotinyl-Val-oxazolone) | self-aminoacylation (biotinyl-Leu-oxazolone) | self-aminoacylation (biotinyl-Met-oxazolone) |
| --- | --- | --- | --- | --- |
| AUUACCCUGGUCAUCUUGUGA [Fam2.1 aminoacylation ribozyme variant] | 2.27 | 2.33 | 4.41 | 4.75 |
| AUUACCCUGGUCCCCGAGUGA [Fam2.1 aminoacylation ribozyme variant] | 6.57 | 8.55 | 15.6 | 15.2 |
| AUUAGCCUGGUCAUCGAGGGA [Fam2.1 aminoacylation ribozyme variant] | 2.08 | 2.4 | 2.52 | 1.49 |
| AUUCACAUAGGGCAUCGGGUG [Fam2.2 aminoacylation ribozyme variant] | 3.83 | 3.39 | 3.62 | 4.4 |
| AUUCACCAAGGUCAUCCGGUG [Fam2.2 aminoacylation ribozyme variant] | 5.51 | 4.96 | 11.4 | 7.8 |
| AUUCACCUAGGACAUCGAGUG [Fam2.2 aminoacylation ribozyme variant] | 1.02 | 1.12 | 1.81 | 1.52 |
| AUUCACCUAGGUCAUCCGGCG [Fam2.2 aminoacylation ribozyme variant] | 3.31 | 4.01 | 3.69 | 3.55 |
| AUUCACCUAGGUUAUCGGGUU [Fam2.2 aminoacylation ribozyme variant] | 1.36 | 1.61 | 1.56 | 1.31 |
| AUUCACCUCGGUCAUCAGGUG [Fam2.2 aminoacylation ribozyme variant] | 1.04 | 1.42 | 1.29 | 1.25 |
| AUUCAUCUAGGUAAUCGGGUG [Fam2.2 aminoacylation ribozyme variant] | 1.95 | 1.73 | 4.09 | 3.07 |
| AUUCAUCUAGGUCAUCAGGUG [Fam2.2 aminoacylation ribozyme variant] | 1.59 | 1.81 | 1.86 |  |
| AUUGACCUAGCUCAUCGGGUG [Fam2.2 aminoacylation ribozyme variant] | 1.69 | 1.94 | 1.76 |  |
| CAAAUUCAAACAAUCGGUCUG [Fam1A.1 aminoacylation ribozyme variant] | 0.809 | 0.879 | 0.945 | 0.825 |
| CAACUUCAAACAAUCUGUCUG [Fam1A.1 aminoacylation ribozyme variant] | 1.1 | 0.948 | 0.976 | 0.817 |
| CAGUUUGAUAAUAGUCGCAAG [Fam3.1 aminoacylation ribozyme variant] | 1.4 | 1.54 | 1.34 | 1.32 |
| CCAAUCUUCAAGCAAUCGGUC [Fam1B.1 aminoacylation ribozyme variant] | 1.14 | 1.06 | 1.33 | 0.942 |
| CCACAAUUCAACCAAUCGGUC [Fam1B.1 aminoacylation ribozyme variant] | 1.35 | 1.35 | 1.42 | 1.5 |
| CCACAAUUCAAUCAAUCGGUC [Fam1B.1 aminoacylation ribozyme variant] | 1.07 | 0.998 | 0.977 | 0.891 |
| CCACACUUCAAACAAUCGGCC [Fam1B.1 aminoacylation ribozyme variant] | 1.77 | 2.19 | 1.61 | 1.96 |
| CCACACUUCAAACGAUCGGUC [Fam1B.1 aminoacylation ribozyme variant] | 0.92 | 1.16 | 1.14 | 1.07 |
| CCACACUUCAAAUAAUCGGUC [Fam1B.1 aminoacylation ribozyme variant] | 0.924 | 0.926 | 1.09 | 0.769 |
| CCACACUUCAACAAAUCGGUC [Fam1B.1 aminoacylation ribozyme variant] | 1.08 | 1.06 | 1.25 | 0.808 |
| CCACGCUUCAAGCAAUCGGCC [Fam1B.1 aminoacylation ribozyme variant] | 1.4 |  | 1.33 | 1.52 |
| GCACACAUCAAGCAAUCGGUC [Fam1B.1 aminoacylation ribozyme variant] |  | 1.84 | 1.73 | 1.48 |
